The supplement of paper PMC9254222
The full ranking holds about 1,100 compounds; the median of “Renilla luciferase signal (cell health) relative to plate median” is about 0.97, and the highest 2% start at about 1.6. This is a selection; strong and weak results do not stand in their true shares.

System: HEK293T (UBE3A T485A transfected, BAR Wnt reporter)
Assay: Renilla luciferase signal (cell health) relative to plate median (fold (linear ratio)); higher = higher Renilla signal
Details: 24 h
Procedure, shortened: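 Wnt activity (firefly/Renilla ratio) and cell health (raw Renilla) were read with Dual-Glo luciferase and median-centred plate by plate. HEK293T cells, at 4500 cells/well in white 384-well plates with DMEM plus 10% FBS at 37°C and 5% CO2, carried a transfected BAR firefly luciferase Wnt reporter, TK-Renilla and an expression plasmid. The chemicals were applied by robot at 0.01–100 uM for 24 h, beginning four hours after transfection, and results were averaged across four biological replicates.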

| SMILES | Renilla luciferase signal (concentration: 0.1 uM) | Renilla luciferase signal (concentration: 1 uM) | Renilla luciferase signal (concentration: 10 uM) | Renilla luciferase signal (concentration: 100 uM) | Renilla luciferase signal (concentration: 0.01 uM) |
| --- | --- | --- | --- | --- | --- |
| O=C1OC(=O)C2C3C=CC(C3)C12 (stereo unspecified) [2-Norbornene-5,6-dicarboxylic anhydride] | 0.885 | 0.853 | 0.966 | 1.39 | – |
| NC(=O)N(O)[C@@H]1C=C[C@H](Oc2cccc(Oc3ccc(F)cc3)c2)C1 | 1.08 | 0.968 | 1.14 | 0.801 | – |
| Cn1c(=O)c2c(ncn2C)n(C)c1=O [Caffeine] | – | – | – | 1.67 | – |
| CCC(C)N(C)C(=O)c1cc2ccccc2c(-c2ccccc2Cl)n1 (stereo unspecified) | 1.12 | 0.996 | 1.2 | 0.598 | – |
| Nc1cccc2c(N)cccc12 [1,5-Naphthalenediamine] | 0.805 | 0.822 | 0.856 | 0.73 | – |
| COCCOCCOCCOC [Triethylene glycol dimethyl ether] | 0.87 | 0.826 | 0.823 | 0.956 | – |
| O=C(O)c1cn(C2CC2)c2cc(N3CCNCC3)c(F)cc2c1=O [Ciprofloxacin] | 0.893 | 1.01 | 0.9 | 0.336 | 1.06 |
| COC(=O)c1ccccc1O [Methyl salicylate] | 1.22 | 1.13 | 1.23 | 0.53 | – |
| CC(C)(C)c1ccc(O)c(C(C)(C)C)c1 [2,4-Di-tert-butylphenol] | 1.1 | 0.968 | 1.12 | 1.14 | – |
| Cc1nc(-c2ccc3c(c2)CCN(CCC2CCC(NC(=O)/C=C/c4ccc(F)cc4)CC2)CC3)no1.Cl (stereo unspecified) | 0.843 | 0.783 | 0.931 | 1.05 | – |
| COc1ccc(-n2nc(C(F)F)cc2-c2ccc(S(C)=O)cc2)cc1 (stereo unspecified) | 0.947 | 1.1 | 1.03 | 0.786 | – |
| CCCCCCCCCCCCCCCCOS(=O)(=O)[O-].[Na+] [Sodium hexyldecyl sulfate] | 1.11 | 1.05 | 1.11 | 0.434 | – |
| CCCCc1nc2cccnc2n1Cc1ccc(-c2ccccc2-c2nnn[n-]2)cc1.[Na+] | 1.02 | 0.923 | 0.981 | 0.506 | – |
| OC1CCC(C2CCCCC2)CC1 (stereo unspecified) [4-Cyclohexylcyclohexanol] | 1.08 | 1.05 | 0.999 | 1.11 | – |
| c1ccc2[nH]c(-c3cscn3)nc2c1 [Thiabendazole] | 0.945 | 1.02 | 1.02 | 1.3 | 0.821 |
| O=CCCCC=O [Glutaraldehyde] | 0.836 | 0.853 | 0.868 | 0.828 | – |

| SMILES | Renilla luciferase signal (concentration: 0.1 uM) | Renilla luciferase signal (concentration: 1 uM) | Renilla luciferase signal (concentration: 10 uM) | Renilla luciferase signal (concentration: 100 uM) | Renilla luciferase signal (concentration: 0.01 uM) |
| --- | --- | --- | --- | --- | --- |
| CC(=O)N1CCN(c2ccc(OC[C@H]3CO[C@](Cn4ccnc4)(c4ccc(Cl)cc4Cl)O3)cc2)CC1 [Ketoconazole] | 0.861 | 1.05 | 0.736 | 0.18 | – |
| CCCCC(CC)COC(=O)CC(C(=O)OCC(CC)CCCC)S(=O)(=O)[O-].[Na+] (stereo unspecified) [Docusate sodium] | 1.03 | 1.01 | 0.965 | 0.621 | – |
| CC/C(=C(/CC)c1ccc(O)cc1)c1ccc(O)cc1 [Diethylstilbestrol] | 0.927 | 1.08 | 0.865 | 0.111 | – |
| CCCCCCCC=O [Octanal] | 1.05 | 0.988 | 1.03 | 1.28 | – |
| CN(C)C(=O)NC1(c2ccccc2)CCN(CCC[C@@]2(c3ccc(Cl)c(Cl)c3)CCCN(C(=O)c3ccccc3)C2)CC1 | 0.809 | 0.927 | 0.892 | 0.0287 | – |
| O=C1CN(N=Cc2ccc([N+](=O)[O-])o2)C(=O)N1 [Nitrofurantoin] | – | – | 1.69 | – | – |
| CCCCCCCCCCCCCCCCO [1-Hexadecanol] | 0.784 | 0.97 | 0.954 | 1.45 | – |
| Cc1cn([C@H]2C=C[C@@H](CO)O2)c(=O)[nH]c1=O [Stavudine] | 0.957 | 1.07 | 0.973 | 0.903 | – |
| CC[C@@H]1C[C@H](N(Cc2cc(C(F)(F)F)cc(C(F)(F)F)c2)C(C)=O)c2cc(C(F)(F)F)ccc2N1C(=O)OC(C)C | 0.773 | 0.801 | 0.678 | 0.813 | – |
| CC[C@H]1CC[C@H](NCc2cc3c(cc2OC)[C@H]2C[C@H]2C(=O)N3C)[C@H](c2ccccc2)N1 | 0.925 | 0.69 | 0.042 | 0.0275 | – |
| Cc1cccc2ccccc12 [1-Methylnaphthalene] | 0.734 | 0.803 | 0.61 | 0.88 | – |
| CCCCCCCCO [1-Octanol] | 0.95 | 1.08 | 1.12 | 1.23 | – |
| C[Si]1(C)O[Si](C)(C)O[Si](C)(C)O[Si](C)(C)O1 [Octamethylcyclotetrasiloxane] | 0.729 | 0.874 | 0.856 | 0.947 | – |
| NC(=O)NO [Hydroxyurea] | 0.943 | 0.888 | 0.86 | 1.3 | – |
| CC1=C(/C=C/C(C)=C/C=C/C(C)=C/CO)C(C)(C)CCC1 [Retinol] | 1.14 | 1.31 | 0.988 | 0.0618 | – |
| OC[C@H]1O[C@@H]2O[C@H]3[C@H](O)[C@@H](O)[C@@H](O[C@H]4[C@H](O)[C@@H](O)[C@@H](O[C@H]5[C@H](O)[C@@H](O)[C@@H](O[C@H]6[C@H](O)[C@@H](O)[C@@H](O[C@H]7[C@H](O)[C@@H](O)[C@@H](O[C@H]1[C@H](O)[C@H]2O)O[C@@H]7CO)O[C@@H]6CO)O[C@@H]5CO)O[C@@H]4CO)O[C@@H]3CO [alpha-Cyclodextrin] | – | – | – | 1.77 | – |

Reformatted as tab-separated lines: two of the compounds above
SMILES	Renilla luciferase signal (concentration: 0.1 uM)	Renilla luciferase signal (concentration: 1 uM)	Renilla luciferase signal (concentration: 10 uM)	Renilla luciferase signal (concentration: 100 uM)	Renilla luciferase signal (concentration: 0.01 uM)
CCCCC(CC)COC(=O)CC(C(=O)OCC(CC)CCCC)S(=O)(=O)[O-].[Na+] (stereo unspecified) [Docusate sodium]	1.03	1.01	0.965	0.621	–
O=C1CN(N=Cc2ccc([N+](=O)[O-])o2)C(=O)N1 [Nitrofurantoin]	–	–	1.69	–	–
